In patent US20250231193A1:
These are yes or no findings as the source states them, for the method shown. Binding seen in cells or lysates may run through a third protein. Some binding calls cover weakened binding; strength is not graded here.

By UniProt entry, the sequences of proteins in these tests, tags left out. Where a name states a change or a piece, a line headed by the entry shows the natural chain unless it says otherwise.
UniProt P05556: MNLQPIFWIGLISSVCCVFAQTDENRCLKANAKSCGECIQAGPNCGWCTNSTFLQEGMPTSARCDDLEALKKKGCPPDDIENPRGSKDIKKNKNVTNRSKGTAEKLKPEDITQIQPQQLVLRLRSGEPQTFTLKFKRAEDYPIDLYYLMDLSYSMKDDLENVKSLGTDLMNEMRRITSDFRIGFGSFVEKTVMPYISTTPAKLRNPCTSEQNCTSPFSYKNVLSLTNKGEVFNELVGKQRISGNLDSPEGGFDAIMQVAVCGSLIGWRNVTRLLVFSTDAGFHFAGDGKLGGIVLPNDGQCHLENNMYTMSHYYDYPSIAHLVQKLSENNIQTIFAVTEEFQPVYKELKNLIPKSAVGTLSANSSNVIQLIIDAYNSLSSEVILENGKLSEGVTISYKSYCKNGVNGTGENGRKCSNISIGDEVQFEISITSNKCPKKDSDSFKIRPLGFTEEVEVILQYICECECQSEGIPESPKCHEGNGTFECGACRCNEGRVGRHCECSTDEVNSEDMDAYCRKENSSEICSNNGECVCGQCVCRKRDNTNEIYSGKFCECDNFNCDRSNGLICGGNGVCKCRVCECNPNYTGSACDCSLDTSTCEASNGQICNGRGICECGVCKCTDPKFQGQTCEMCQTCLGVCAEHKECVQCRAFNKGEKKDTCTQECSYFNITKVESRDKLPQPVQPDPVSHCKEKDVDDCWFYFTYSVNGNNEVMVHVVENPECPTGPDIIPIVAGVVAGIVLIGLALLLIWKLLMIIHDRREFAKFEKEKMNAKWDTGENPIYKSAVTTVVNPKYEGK
UniProt P06756: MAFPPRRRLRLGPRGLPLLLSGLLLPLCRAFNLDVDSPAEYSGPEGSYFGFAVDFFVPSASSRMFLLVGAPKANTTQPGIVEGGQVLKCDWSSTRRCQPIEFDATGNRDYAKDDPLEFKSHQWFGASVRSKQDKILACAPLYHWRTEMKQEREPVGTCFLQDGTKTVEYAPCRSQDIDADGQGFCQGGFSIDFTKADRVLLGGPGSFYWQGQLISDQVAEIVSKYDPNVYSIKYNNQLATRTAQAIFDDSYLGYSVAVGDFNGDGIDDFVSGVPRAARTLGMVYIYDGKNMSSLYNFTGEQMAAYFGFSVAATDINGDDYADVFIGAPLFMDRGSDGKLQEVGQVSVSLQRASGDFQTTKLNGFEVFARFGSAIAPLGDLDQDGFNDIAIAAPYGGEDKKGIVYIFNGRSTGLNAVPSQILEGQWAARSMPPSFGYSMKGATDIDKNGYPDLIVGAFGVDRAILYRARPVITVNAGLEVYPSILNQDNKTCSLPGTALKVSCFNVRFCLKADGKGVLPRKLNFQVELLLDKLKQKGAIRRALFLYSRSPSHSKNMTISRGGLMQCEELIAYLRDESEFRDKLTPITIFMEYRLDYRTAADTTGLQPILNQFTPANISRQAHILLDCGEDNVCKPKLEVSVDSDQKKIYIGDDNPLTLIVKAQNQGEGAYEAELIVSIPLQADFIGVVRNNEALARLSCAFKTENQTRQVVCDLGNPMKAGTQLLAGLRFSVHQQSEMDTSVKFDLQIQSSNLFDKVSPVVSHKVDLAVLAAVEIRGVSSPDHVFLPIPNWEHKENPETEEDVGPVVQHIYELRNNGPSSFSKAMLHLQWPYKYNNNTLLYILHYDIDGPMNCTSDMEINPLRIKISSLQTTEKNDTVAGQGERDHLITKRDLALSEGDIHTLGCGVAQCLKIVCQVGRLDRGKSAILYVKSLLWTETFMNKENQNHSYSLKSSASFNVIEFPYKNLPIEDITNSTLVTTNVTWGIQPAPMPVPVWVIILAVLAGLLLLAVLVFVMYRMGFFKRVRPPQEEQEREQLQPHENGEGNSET

What was measured:
integrin β1 (CD29) [1] = biological target: integrin β1 (CD29) (UniProt P05556); assay: co-immunoprecipitation from Seax cell lysate with anti-CD51 clone NKI-M9; 8% SDS-PAGE and Western blot
integrin β1 (CD29) [2] = biological target: integrin β1 (CD29) (UniProt P05556); assay: co-immunoprecipitation from Seax cell lysate with anti-CD51 clone NKI-M9; Western blot with anti-CD29 clone D6S1w

CD51 (αV-integrin, integrin alpha-V) (from UniProt P06756 31-1048) (receptor)
binding (integrin β1 (CD29) [1]): binds | binding (integrin β1 (CD29) [2]): binds
